26 targets from the supplement of paper PMC12819154, “High-throughput peptide-centric local stability assay extends protein–ligand identification to membrane proteins, tissues and bacteria” (Nature Structural & Molecular Biology, 2025) can be followed below.

The chains behind the UniProt entries cited, without tags or fusion partners. Where a name states a change or a piece, a line headed by the entry shows the natural chain unless it says otherwise.
UniProt Q9H1B7, whole entry: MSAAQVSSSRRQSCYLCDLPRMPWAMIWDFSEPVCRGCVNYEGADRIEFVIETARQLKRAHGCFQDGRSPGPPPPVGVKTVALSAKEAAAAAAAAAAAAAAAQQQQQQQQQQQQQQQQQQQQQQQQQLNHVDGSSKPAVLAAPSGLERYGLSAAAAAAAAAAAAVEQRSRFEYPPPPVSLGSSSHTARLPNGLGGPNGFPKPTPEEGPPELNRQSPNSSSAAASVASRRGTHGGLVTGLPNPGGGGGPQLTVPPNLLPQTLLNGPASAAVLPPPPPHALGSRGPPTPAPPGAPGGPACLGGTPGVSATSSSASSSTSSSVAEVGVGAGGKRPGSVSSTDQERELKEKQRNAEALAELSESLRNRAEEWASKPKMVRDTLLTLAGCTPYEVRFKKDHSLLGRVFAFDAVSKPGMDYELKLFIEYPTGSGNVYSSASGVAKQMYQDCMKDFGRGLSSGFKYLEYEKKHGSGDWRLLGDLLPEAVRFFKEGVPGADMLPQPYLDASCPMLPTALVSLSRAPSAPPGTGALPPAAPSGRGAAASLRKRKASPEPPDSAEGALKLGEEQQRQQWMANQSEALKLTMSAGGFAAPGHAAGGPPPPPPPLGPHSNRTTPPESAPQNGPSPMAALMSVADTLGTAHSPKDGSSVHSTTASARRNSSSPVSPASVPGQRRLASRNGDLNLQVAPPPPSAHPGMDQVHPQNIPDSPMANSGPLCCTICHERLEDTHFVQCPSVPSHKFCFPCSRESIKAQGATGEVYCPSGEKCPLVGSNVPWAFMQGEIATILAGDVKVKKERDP
UniProt Q9GZZ9, whole entry: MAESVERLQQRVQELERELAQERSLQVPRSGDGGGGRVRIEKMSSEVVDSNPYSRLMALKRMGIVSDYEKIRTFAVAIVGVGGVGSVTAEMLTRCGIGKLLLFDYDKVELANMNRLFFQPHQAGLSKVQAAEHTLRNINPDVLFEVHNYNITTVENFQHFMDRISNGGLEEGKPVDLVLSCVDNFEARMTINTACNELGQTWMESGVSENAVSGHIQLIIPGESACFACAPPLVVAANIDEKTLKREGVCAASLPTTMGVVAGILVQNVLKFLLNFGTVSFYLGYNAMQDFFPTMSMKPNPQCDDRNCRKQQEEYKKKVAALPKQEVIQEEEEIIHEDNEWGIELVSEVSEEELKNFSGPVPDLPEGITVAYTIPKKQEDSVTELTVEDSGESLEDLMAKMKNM
UniProt Q9BX69: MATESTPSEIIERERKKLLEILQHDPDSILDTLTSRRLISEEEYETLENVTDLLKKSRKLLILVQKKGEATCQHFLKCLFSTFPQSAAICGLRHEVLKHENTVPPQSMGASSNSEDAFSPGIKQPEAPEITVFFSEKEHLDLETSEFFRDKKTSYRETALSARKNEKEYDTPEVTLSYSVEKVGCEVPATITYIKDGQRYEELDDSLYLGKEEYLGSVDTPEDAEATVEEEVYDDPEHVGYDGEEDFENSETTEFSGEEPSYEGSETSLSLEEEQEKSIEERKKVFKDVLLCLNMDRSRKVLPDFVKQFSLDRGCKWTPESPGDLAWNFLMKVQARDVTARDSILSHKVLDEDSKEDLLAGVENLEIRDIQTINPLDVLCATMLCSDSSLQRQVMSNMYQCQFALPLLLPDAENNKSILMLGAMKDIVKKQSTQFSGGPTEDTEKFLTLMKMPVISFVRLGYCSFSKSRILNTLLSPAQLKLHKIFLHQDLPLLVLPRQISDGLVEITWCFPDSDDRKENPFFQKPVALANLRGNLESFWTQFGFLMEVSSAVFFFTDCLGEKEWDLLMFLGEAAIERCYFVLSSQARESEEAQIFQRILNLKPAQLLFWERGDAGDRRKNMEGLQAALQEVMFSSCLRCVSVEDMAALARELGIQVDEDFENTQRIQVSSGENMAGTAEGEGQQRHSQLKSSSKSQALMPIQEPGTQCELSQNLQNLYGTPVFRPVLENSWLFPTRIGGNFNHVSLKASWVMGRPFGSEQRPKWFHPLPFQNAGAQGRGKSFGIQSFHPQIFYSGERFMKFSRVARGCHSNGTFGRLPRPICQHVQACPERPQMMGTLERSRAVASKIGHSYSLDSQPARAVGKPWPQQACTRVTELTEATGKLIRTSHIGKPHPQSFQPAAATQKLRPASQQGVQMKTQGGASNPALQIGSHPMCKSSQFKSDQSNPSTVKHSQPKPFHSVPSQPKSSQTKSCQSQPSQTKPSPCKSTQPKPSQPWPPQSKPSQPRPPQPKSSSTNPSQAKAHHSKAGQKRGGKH
UniProt Q9H3P2, whole entry: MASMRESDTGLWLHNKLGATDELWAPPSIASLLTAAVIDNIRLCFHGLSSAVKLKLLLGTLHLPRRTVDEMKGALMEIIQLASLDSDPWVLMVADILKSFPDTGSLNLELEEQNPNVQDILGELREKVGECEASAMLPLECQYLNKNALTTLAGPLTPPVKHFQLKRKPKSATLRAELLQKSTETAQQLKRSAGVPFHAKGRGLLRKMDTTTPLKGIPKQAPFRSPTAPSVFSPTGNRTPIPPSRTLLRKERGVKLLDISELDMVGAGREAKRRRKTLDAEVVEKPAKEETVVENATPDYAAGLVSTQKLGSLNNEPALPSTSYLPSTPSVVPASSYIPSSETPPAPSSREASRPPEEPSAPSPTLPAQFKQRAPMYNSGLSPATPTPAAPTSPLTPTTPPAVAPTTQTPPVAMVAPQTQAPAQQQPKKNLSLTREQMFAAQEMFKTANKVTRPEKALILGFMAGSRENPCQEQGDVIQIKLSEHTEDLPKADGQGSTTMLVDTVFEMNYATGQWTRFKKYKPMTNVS
UniProt Q9H2P0: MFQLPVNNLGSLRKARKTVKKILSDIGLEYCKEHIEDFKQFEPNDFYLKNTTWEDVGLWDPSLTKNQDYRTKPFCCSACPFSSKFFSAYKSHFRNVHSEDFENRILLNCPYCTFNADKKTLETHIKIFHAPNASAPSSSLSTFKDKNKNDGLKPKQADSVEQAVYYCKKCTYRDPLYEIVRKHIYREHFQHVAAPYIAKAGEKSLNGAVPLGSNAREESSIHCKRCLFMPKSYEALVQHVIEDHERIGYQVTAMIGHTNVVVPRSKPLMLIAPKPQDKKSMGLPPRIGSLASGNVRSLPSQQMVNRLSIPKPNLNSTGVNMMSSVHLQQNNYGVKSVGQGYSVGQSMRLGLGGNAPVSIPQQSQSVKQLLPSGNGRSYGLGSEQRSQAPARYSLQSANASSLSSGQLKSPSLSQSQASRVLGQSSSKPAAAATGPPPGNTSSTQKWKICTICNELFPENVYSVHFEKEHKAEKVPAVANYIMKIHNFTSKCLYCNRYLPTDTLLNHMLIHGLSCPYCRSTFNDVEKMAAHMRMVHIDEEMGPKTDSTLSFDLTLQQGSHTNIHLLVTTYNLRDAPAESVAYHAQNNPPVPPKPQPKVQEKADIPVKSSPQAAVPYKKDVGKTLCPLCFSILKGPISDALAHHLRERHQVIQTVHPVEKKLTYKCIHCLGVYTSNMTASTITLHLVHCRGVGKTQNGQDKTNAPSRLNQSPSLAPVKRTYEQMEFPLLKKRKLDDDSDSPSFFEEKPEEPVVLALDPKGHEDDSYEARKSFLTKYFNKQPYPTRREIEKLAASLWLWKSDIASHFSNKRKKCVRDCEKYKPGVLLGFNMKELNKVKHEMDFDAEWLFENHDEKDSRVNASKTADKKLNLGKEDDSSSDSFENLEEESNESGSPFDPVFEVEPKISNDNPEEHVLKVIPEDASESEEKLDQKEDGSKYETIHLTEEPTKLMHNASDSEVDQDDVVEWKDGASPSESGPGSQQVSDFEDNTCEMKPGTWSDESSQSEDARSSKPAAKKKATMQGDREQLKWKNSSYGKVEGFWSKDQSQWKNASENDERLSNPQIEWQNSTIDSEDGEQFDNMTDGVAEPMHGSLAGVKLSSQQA
UniProt Q9BZX2: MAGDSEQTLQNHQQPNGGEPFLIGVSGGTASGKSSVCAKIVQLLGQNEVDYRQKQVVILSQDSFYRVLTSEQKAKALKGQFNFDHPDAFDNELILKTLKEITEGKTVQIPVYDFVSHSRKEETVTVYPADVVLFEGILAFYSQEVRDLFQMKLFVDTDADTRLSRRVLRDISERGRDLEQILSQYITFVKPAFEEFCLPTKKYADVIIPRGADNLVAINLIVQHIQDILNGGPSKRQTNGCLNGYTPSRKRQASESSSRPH
UniProt Q9H479: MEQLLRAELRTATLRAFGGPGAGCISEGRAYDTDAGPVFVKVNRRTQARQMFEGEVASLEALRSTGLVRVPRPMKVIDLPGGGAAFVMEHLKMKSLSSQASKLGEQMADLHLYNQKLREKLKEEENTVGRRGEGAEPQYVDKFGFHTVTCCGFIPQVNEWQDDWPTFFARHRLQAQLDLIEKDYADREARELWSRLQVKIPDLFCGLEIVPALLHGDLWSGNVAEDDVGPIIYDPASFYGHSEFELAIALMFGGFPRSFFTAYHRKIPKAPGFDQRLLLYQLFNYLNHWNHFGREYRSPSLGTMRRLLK
UniProt Q9BXS6: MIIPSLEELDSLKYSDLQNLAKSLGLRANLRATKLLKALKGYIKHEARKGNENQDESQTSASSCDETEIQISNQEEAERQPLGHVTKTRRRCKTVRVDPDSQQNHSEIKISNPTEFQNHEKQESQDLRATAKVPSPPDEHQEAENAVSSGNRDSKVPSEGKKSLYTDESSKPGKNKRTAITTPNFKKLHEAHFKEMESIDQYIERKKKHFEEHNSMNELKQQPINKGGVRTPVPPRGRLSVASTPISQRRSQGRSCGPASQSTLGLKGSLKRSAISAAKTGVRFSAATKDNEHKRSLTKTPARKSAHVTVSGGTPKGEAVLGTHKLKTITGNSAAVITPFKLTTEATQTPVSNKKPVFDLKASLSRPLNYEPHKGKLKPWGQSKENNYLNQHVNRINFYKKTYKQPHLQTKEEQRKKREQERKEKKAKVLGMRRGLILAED
UniProt Q9H0C8: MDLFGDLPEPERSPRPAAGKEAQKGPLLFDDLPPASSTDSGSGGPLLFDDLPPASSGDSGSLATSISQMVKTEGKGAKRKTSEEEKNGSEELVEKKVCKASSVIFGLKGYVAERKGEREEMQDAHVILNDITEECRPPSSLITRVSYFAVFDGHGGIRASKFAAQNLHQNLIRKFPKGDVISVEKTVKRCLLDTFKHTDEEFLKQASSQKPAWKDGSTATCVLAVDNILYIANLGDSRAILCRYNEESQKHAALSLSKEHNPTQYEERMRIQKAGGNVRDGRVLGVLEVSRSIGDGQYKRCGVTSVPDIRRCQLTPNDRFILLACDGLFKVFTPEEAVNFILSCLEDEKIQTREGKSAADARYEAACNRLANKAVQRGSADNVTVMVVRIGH
UniProt Q9BXK1: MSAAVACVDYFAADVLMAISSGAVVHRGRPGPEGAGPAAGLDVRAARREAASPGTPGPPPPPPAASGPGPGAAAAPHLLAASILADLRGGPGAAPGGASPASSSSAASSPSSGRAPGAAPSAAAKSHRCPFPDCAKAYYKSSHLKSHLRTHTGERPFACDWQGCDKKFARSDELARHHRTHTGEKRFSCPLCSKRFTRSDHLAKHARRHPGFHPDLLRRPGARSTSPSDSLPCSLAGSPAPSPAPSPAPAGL
UniProt Q9H425: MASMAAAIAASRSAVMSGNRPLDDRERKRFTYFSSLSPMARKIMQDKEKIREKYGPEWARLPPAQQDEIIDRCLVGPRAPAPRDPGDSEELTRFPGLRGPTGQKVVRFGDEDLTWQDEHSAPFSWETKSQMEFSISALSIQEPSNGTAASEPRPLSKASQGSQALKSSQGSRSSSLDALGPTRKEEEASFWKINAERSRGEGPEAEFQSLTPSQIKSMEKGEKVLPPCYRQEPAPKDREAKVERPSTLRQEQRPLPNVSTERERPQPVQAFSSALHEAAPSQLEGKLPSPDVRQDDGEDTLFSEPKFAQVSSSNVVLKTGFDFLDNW
UniProt Q9BXS4: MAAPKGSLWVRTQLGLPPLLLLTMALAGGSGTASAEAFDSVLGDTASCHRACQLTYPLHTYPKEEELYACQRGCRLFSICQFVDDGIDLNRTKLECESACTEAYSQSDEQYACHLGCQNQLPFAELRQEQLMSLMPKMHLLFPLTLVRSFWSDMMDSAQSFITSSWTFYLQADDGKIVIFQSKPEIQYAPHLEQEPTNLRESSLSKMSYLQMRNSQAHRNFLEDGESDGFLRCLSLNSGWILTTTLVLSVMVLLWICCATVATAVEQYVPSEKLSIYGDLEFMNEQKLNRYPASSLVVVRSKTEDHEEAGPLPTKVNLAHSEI
UniProt Q9BYV8: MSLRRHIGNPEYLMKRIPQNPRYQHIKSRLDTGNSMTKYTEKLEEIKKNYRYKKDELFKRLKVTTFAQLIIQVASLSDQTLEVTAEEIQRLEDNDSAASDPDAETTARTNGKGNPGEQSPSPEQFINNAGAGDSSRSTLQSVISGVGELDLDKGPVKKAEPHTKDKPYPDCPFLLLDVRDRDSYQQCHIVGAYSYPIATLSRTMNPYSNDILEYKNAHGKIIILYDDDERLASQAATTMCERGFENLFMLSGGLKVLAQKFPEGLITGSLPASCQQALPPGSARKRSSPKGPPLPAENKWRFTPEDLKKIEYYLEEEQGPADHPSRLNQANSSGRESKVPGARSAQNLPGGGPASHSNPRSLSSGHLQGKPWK

The other results are listed elsewhere or left out. Most values lie at the level of the controls, where differences are scatter.

Compound in this test: CN[C@@H]1C[C@H]2O[C@@](C)([C@@H]1OC)n1c3ccccc3c3c4c(c5c6ccccc6n2c5c31)C(=O)NC4 [staurosporine]
The test can be described thus: log2 fold change of tryptic peptide abundance, ligand vs vehicle (limited proteolysis) (log2 ratio); higher = more trypsin-susceptible (destabilized). To be noted: ligand concentration: 20 uM; sample: K562 cleared lysate; digestion: 4 min, 22 C (HT-PELSA RT4min, Orbitrap Astral).
Turning to “UniProt Q9H1B7 (peptide sequence: RNSSSPVSPASVPGQR, peptide start residue: 655)”, the log2 fold change is -1.09.

As to “UBA5 (peptide sequence: KQQEEYK, peptide start residue: 310) (UniProt Q9GZZ9)”, the log2 fold change turned out to be 1.08.

“CARD6 (peptide sequence: TQGGASNPALQIGSHPMCK, peptide start residue: 920) (UniProt Q9BX69)”: the log2 fold change was -0.399.

With “UniProt Q9H3P2 (peptide sequence: ALILGFMAGSR, peptide start residue: 457)”, the log2 fold change was -0.0987.

Turning to “ADNP (peptide sequence: NSSYGKVEGFWSK, peptide start residue: 1030) (UniProt Q9H2P0)”, the log2 fold change was -0.476.

As to “NXF2 (peptide sequence: DSAPSSLCK, peptide start residue: 431) (UniProt Q9GZY0)”, the log2 fold change is -0.394.

For “SCNM1 (peptide sequence: AEAPLLTQTR, peptide start residue: 102) (UniProt Q9BWG6)”, the log2 fold change stood at 0.224.

For “UCK2 (peptide sequence: IVQLLGQNEVDYR, peptide start residue: 40) (UniProt Q9BZX2)”, the log2 fold change was -0.409.

In the case of “UniProt Q9BWW4 (peptide sequence: QQGHPNMGGSMQR, peptide start residue: 190)”, the log2 fold change was 0.131.

On to “FN3K (peptide sequence: LKEEENTVGR, peptide start residue: 121) (UniProt Q9H479)”, for which the log2 fold change came out at 0.187.

Regarding “BTBD1 (peptide sequence: EVVNLFLHFTVNPKPR, peptide start residue: 299) (UniProt Q9H0C5)”, the log2 fold change is -0.68.

Consider “NUSAP1 (peptide sequence: EMESIDQYIERK, peptide start residue: 195) (UniProt Q9BXS6)”, for which the log2 fold change worked out at 0.327.

As for “DDX47 (peptide sequence: LQQYYIFIPSKFK, peptide start residue: 238) (UniProt Q9H0S4)”, the log2 fold change was -0.74.

In the case of “UniProt Q9BYU1 (peptide sequence: MKPALFSVLCEIKEK, peptide start residue: 83)”, the log2 fold change is -0.0992.

For “DPH5 (peptide sequence: VKEQSLENLIK, peptide start residue: 167) (UniProt Q9H2P9)”, the log2 fold change was -0.236.

“ILKAP (peptide sequence: RCGVTSVPDIRR, peptide start residue: 300) (UniProt Q9H0C8)”: the log2 fold change is -0.979.

As for “KLF16 (peptide sequence: GRPGPEGAGPAAGLDVR, peptide start residue: 28) (UniProt Q9BXK1)”, the log2 fold change was 0.263.

Consider “TNKS1BP1 (peptide sequence: KEVLASPDRLWGSR, peptide start residue: 173) (UniProt Q9C0C2)”, for which the log2 fold change was -0.285.

Turning to “BTBD2 (peptide sequence: AEEAAGPGAAALQR, peptide start residue: 77) (UniProt Q9BX70)”, the log2 fold change amounted to 0.131.

With “PAIP1 (peptide sequence: VHATSTYR, peptide start residue: 380) (UniProt Q9H074)”, the log2 fold change is 0.314.

For “C1orf198 (peptide sequence: ASMAAAIAASR, peptide start residue: 2) (UniProt Q9H425)”, the log2 fold change was found to be 0.189.

For “TMEM59 (peptide sequence: SKTEDHEEAGPLPTK, peptide start residue: 301) (UniProt Q9BXS4)”, the log2 fold change is -0.27.

Regarding “UniProt Q9BYV8 (peptide sequence: IIILYDDDER, peptide start residue: 221)”, the log2 fold change is -0.247.

With “WDR11 (peptide sequence: LATATGAKK, peptide start residue: 215) (UniProt Q9BZH6)”, the log2 fold change is -0.32.

Take “QRSL1 (peptide sequence: FDGLQYGHR, peptide start residue: 342) (UniProt Q9H0R6)”: the log2 fold change was found to be 0.384.

As for “UniProt Q9BXJ9 (peptide sequence: HFIEITDDQFDFHTYCMR, peptide start residue: 514)”, the log2 fold change turned out to be 0.719.
